# According to patent US20140093960A1, “CELL DIFFERENTIATION INDUCER AND DIFFERENTIATION INDUCING METHOD” (The University of Tokushima, priority 2011, published 2014):
# At least one structure is not confirmed: it was looked up by name or label, or the drawing left a doubt.
# System: mouse ES cell
# Assay: Identification of cell of which morphology was changed, Nestin / Flk1 immunostaining (Example 7(2))
# Assay type: cell-based
# Conditions: differentiated mouse ES cell, retinoic acid at 1 μM
compound,measurement,setting,value
CC1=C(/C=C/C(C)=C/C=C/C(C)=C/C(=O)O)C(C)(C)CCC1 [retinoic acid],Flk1 expression (marker of a mesodermal stem cell),anti-Flk1 immunofluorescence,not expressed
same,Nestin expression (marker of an ectodermal stem cell),anti-Nestin immunofluorescence,expressed
